Reference: patent US11629174B2, “Cryptic metabolites and method for activating silent biosynthetic gene clusters in actinomycete bacteria” (The Trustees of Princeton University, priority 2017, dated 2023)
For some assays here: For at least one compound, name, drawing or mass did not settle the structure. Some entries share one result that the patent states for a list of compounds.

Columns and labels:
[1] = tested on: Gene cluster 3648; experiment: HiTES in S. avermitilis, gene cluster 3648; type: cell-based; conditions: FIGS. 16 and 17
[2] = tested on: surR; experiment: RT-qPCR of surR expression in wt S. albus; type: cell-based, Streptomyces albus J1074; conditions: vs DMSO control

| Structure (SMILES) | elicitor of gene cluster 3648 (ranking) [1] | down-regulation of surR expression [2] |
| --- | --- | --- |
| C[C@H]1COc2c(N3CCN(C)CC3)c(F)cc3c(=O)c(C(=O)O)cn1c23 [Levofloxacin] | top four elicitors |  |
| COc1cc([C@@H]2c3cc4c(cc3[C@@H](O[C@@H]3O[C@@H]5CO[C@@H](C)O[C@H]5[C@H](O)[C@H]3O)[C@H]3COC(=O)[C@H]23)OCO4)cc(OC)c1O [etoposide] |  | 2-2.5 fold |
